Values from PubChem BioAssay AID1259264 (Sanger Institute, 2017).

Test: 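Kinases whose loss cuts CL40 colorectal cancer cell survival, alone or with drugs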 (primary screen)
Cell system: CL40 human colorectal cancer cells
Knock-down reagent: siRNA pool against human genes
Challenge: DMSO, or an anchor drug: BYL719 at 1 µM, cetuximab at 5 µg/ml, or trametinib at 10 nM
Measured: 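Viability as a fraction of non-targeting pool control (replicates averaged), control-based robust z-score, plus averaged synergy for each drug: BYL719 1 µM, cetuximab 5 µg/ml, trametinib 10 nM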
Reading the numbers: robust z-score, siRNA alone and viability, siRNA alone: higher = more viable cells; synergy score with BYL719: higher = stronger combined killing with BYL719; synergy score with cetuximab: higher = stronger combined killing with cetuximab; synergy score with trametinib: higher = stronger combined killing with trametinib
Active means: 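a gene counts as essential when knock-down without drug gives a robust z-score below -3, meaning fewer cells; synergy scores play no part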
Meaning of the calls: active = essential (lowers viability alone); inactive = not essential
In all, the deposit lists 794 reagents; this is an unselected part. Of all reagents, 15 (1.9%) are marked active. 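Calls rest on knock-down alone at z-score below -3; synergy scores with the three drugs do not decide them.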 Viability is capped at 1. The record does not give: the amount of reagent, the time to read-out.

target	robust z-score, siRNA alone	viability, siRNA alone (fraction of control)	synergy score with BYL719	synergy score with cetuximab	synergy score with trametinib	call
ACVR2A	0.539	1	-0.141	-0.0174	0.0162	inactive
CLSPN	0.539	1	-0.0758	0.0642	0.0963	inactive
CHEK1	-0.808	0.903	-0.0966	-0.0222	0.0211	inactive
PIK3R2	0.269	0.981	-0.172	0.0127	-0.0745	inactive
PIK3R4	0.539	1	0.00717	0.0221	0.127	inactive
PKN2	-0.579	0.92	-0.115	0.0305	0.136	inactive
PASK	-0.684	0.912	-0.0409	0.00537	0.0616	inactive
PLK3	-0.0916	0.955	-0.134	-0.0619	0.0059	inactive
MAP2K5	0.539	1	-0.0393	-0.0174	0.0449	inactive
PFKFB1	-0.753	0.907	-0.0755	-0.0374	0.0872	inactive
PRKACB	0.539	1	-0.0974	-0.0174	0.0485	inactive
RPS6KA4	-0.417	0.931	-0.0577	-0.0848	0.171	inactive
CDKN1C	0.168	0.973	-0.0994	-0.0104	0.0761	inactive
ABL1	0.539	1	-0.156	-0.0174	0.0939	inactive
PRKACA	0.539	1	-0.134	-0.0174	0.0726	inactive
ZAP70	0.194	0.975	-0.142	-0.0417	0.151	inactive
ARID1A	-0.684	0.912	-0.0742	-0.0888	0.0609	inactive
FGR	-0.277	0.941	-0.136	-0.0224	0.154	inactive
RNASEL	0.539	1	-0.156	-0.0174	0.0224	inactive
IDH2	0.18	0.974	-0.0533	-0.0427	0.0779	inactive
PRKCD	0.539	1	-0.00343	-0.0021	0.0998	inactive
WT1	0.539	1	-0.156	-0.0174	-0.0015	inactive
CDK8	0.539	1	-0.101	-0.0174	0.13	inactive
TPK1	-3.41	0.717	-0.2	-0.144	0.0592	active
CDC73	-0.745	0.908	-0.0479	-0.107	-0.0389	inactive
PIP5K1C	0.539	1	-0.114	0.103	0.0751	inactive
ULK1	-0.0348	0.959	-0.0974	-0.0578	0.11	inactive
PIK3C2A	-0.307	0.939	-0.00744	-0.077	0.109	inactive
IRAK4	-0.922	0.895	-0.163	-0.12	0.0597	inactive
TP53RK	0.539	1	-0.11	-0.0174	0.0505	inactive
ACVR1B	0.443	0.993	-0.0883	-0.0242	0.0948	inactive
LMTK3	-0.839	0.901	-0.0829	-0.0754	0.0353	inactive
EPHA4	0.511	0.998	-0.147	-0.0194	0.0438	inactive
HUS1	0.475	0.995	0.00692	0.0118	0.0941	inactive
OXSR1	0.539	1	-0.0472	-0.0174	0.0776	inactive
WHR1	0.539	1	-0.156	0.00899	0.0532	inactive
PANK4	-1.87	0.827	-0.143	-0.173	-0.0236	inactive
AK4	0.539	1	-0.0238	-0.0174	0.00687	inactive
MYO3A	-0.648	0.915	0.00642	0.0604	0.0762	inactive
NEK8	0.539	1	-0.118	-0.0174	0.0633	inactive
DMPK	0.539	1	-0.0127	0.0642	0.112	inactive
RPS6KB2	0.539	1	-0.114	-0.0174	-0.0243	inactive
MAP3K7	0.539	1	-0.102	-0.0174	0.136	inactive
BRD4	0.539	1	-0.0513	-0.0174	0.059	inactive
TEK	0.539	1	-0.156	-0.0174	0.0648	inactive
ETNK1	0.539	1	-0.122	-0.0174	0.13	inactive
WNK2	0.169	0.973	-0.178	-0.0435	-0.093	inactive
NEK2	0.384	0.989	-0.0911	-0.0283	0.0789	inactive
SLK	0.479	0.996	-0.00253	-0.0217	-0.00636	inactive
SRPK3	-0.382	0.934	-0.197	-0.0823	0.0186	inactive
ABL2	0.539	1	-0.0873	-0.0174	0.0436	inactive
PRKAR2B	0.539	1	-0.0973	-0.00554	0.0957	inactive
IPMK	0.106	0.969	-0.0232	-0.0479	0.0124	inactive
PFKL	-0.0937	0.955	-0.0706	-0.026	-0.0297	inactive
ELP1	0.539	1	-0.0269	0.0421	0.0837	inactive
TYRO3	-0.0735	0.956	-0.0351	-0.0606	0.115	inactive
ERN2	0.539	1	-0.124	-0.0174	0.0513	inactive
CUL1	0.539	1	-0.0888	-0.0174	-0.0616	inactive
UCKL1	-0.363	0.935	-0.101	-0.0478	0.0865	inactive
RFK	0.344	0.986	-0.0804	-0.0312	0.104	inactive
AXL	-0.112	0.953	-0.17	-0.0174	0.0101	inactive
CRIM1	-0.305	0.94	-0.0899	-0.0769	0.115	inactive
EIF2AK4	-0.763	0.907	-0.235	-0.109	0.0284	inactive

7 of these entries, reformatted:
{"target":"PRKACB","robust z-score, siRNA alone":0.539,"viability, siRNA alone (fraction of control)":1,"synergy score with BYL719":-0.0974,"synergy score with cetuximab":-0.0174,"synergy score with trametinib":0.0485,"call":"inactive"}
{"target":"RPS6KA4","robust z-score, siRNA alone":-0.417,"viability, siRNA alone (fraction of control)":0.931,"synergy score with BYL719":-0.0577,"synergy score with cetuximab":-0.0848,"synergy score with trametinib":0.171,"call":"inactive"}
{"target":"CDKN1C","robust z-score, siRNA alone":0.168,"viability, siRNA alone (fraction of control)":0.973,"synergy score with BYL719":-0.0994,"synergy score with cetuximab":-0.0104,"synergy score with trametinib":0.0761,"call":"inactive"}
{"target":"ABL1","robust z-score, siRNA alone":0.539,"viability, siRNA alone (fraction of control)":1,"synergy score with BYL719":-0.156,"synergy score with cetuximab":-0.0174,"synergy score with trametinib":0.0939,"call":"inactive"}
{"target":"PRKACA","robust z-score, siRNA alone":0.539,"viability, siRNA alone (fraction of control)":1,"synergy score with BYL719":-0.134,"synergy score with cetuximab":-0.0174,"synergy score with trametinib":0.0726,"call":"inactive"}
{"target":"ZAP70","robust z-score, siRNA alone":0.194,"viability, siRNA alone (fraction of control)":0.975,"synergy score with BYL719":-0.142,"synergy score with cetuximab":-0.0417,"synergy score with trametinib":0.151,"call":"inactive"}
{"target":"ARID1A","robust z-score, siRNA alone":-0.684,"viability, siRNA alone (fraction of control)":0.912,"synergy score with BYL719":-0.0742,"synergy score with cetuximab":-0.0888,"synergy score with trametinib":0.0609,"call":"inactive"}
